Data: article PMC12817906, “SVCV phosphoprotein hijacks phase separation to immobilize the IRF3-TBK1 signaling axis and suppress interferon antiviral immunity” (Journal of Virology, 2025)
Results are given in words; binding and its absence hold for the method and conditions named. In cells and extracts the contact can be indirect. Tags and fused reporters may be left off the sequences shown.

Molecular target: T1, Myc-tagged SVCV phosphoprotein (SVCV-P) (spring viremia of carp virus (SVCV)) (UniProt Q91DS2)
T1 sequence: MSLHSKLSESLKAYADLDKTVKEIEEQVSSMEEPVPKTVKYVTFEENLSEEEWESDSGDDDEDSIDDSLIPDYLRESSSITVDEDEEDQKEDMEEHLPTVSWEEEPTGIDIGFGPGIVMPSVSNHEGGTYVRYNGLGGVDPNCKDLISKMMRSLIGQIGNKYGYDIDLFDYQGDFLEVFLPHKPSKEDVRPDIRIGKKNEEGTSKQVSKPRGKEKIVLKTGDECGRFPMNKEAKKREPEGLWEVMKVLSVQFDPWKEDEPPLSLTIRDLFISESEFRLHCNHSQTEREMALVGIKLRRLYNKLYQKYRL
Assay: co-IP; HEK293T cells co-transfected with the two tagged plasmids; lysate incubated with tag antibody overnight at 4°C, protein A-agarose beads, Western blot; in Fig. 4G cells treated with 1,6-HEX before lysis

## Flag-tagged zebrafish IRF3
  binding: no binding
